No constants are given. Whether binding was seen depends on the method and setting. Binding seen in cells or lysates may run through a third protein. These calls come from enrichment with a bait or labelling near it, and not all partners need be listed.

For one molecule, binding results are on record in article doi:10.1101/2021.10.28.466285.

The target in the test is CHD4, endogenous in E10.5 mouse embryonic hearts (mouse (endogenous in E10.5 embryonic hearts)), Q6PDQ2. Description: affinity purification with mass spectrometry. The note with it: remark: other sources report otherwise.

B1: TBX5, endogenous in E10.5 mouse embryonic hearts, P70326 1-518 (protein)
chain: MADTDEGFGLARTPLEPDSKDRSCDSKPESALGAPSKSPSSPQAAFTQQGMEGIKVFLHERELWLKFHEVGTEMIITKAGRRMFPSYKVKVTGLNPKTKYILLMDIVPADDHRYKFADNKWSVTGKAEPAMPGRLYVHPDSPATGAHWMRQLVSFQKLKLTNNHLDPFGHIILNSMHKYQPRLHIVKADENNGFGSKNTAFCTHVFPETAFIAVTSYQNHKITQLKIENNPFAKGFRGSDDLELHRMSRMQSKEYPVVPRSTVRHKVTSNHSPFSSETRALSTSSNLGSQYQCENGVSGPSQDLLPPPNPYPLAQEHSQIYHCTKRKDEECSSTEHPYKKPYMETSPSEEDTFYRSGYPQQQGLSTSYRTESAQRQACMYASSAPPSEPVPSLEDISCNTWPSMPSYSSCTVTTVQPMDRLPYQHFSAHFTSGPLVPRLAGMANHGSPQLGEGMFQHQTSVAHQPVVRQCGPQTGLQSPGGLQPPEFLYTHGVPRTLSPHQYHSVHGVGMVPEWSENS
As for B1, the binding entry was “binds”.
